60 sequences from article PMC7862700 can be followed below.

By UniProt entry, the sequences of proteins in these tests, tags left out. Where a name states a change or a piece, a line headed by the entry shows the natural chain unless it says otherwise.
UniProt Q00613: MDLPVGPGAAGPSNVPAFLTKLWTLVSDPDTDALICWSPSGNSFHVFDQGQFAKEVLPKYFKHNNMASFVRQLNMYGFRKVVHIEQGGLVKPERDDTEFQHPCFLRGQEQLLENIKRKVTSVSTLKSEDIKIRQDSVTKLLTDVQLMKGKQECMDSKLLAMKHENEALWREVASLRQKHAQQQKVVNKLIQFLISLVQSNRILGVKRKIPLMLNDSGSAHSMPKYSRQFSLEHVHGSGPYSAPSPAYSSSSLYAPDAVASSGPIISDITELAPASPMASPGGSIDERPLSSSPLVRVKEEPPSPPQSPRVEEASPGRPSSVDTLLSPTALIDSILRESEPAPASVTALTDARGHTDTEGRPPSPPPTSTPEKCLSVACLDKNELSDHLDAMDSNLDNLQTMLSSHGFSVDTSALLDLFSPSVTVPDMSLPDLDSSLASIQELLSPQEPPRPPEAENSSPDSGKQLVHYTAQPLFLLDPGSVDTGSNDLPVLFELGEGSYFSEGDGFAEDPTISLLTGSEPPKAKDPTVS

One experiment has as its target HSF1 (UniProt Q00613). Nature of the experiment: DAPPL (digital affinity profiling via proximity ligation, sequencing). The following applies: 10 mM Tris-HCl pH 7.5, 50 mM NaCl, 1 mM DTT, 4% glycerol, room temperature, 30 min; GST-TFs on glutathione beads, 16-mer random dsDNA library, 0.1% …; high values mean tight binding; double strand, one strand shown; scale: fold enrichment (6-mer frequency, TF over GST control).

The next experiment concerns the target T1, ELF2 (UniProt Q15723).
T1 sequence: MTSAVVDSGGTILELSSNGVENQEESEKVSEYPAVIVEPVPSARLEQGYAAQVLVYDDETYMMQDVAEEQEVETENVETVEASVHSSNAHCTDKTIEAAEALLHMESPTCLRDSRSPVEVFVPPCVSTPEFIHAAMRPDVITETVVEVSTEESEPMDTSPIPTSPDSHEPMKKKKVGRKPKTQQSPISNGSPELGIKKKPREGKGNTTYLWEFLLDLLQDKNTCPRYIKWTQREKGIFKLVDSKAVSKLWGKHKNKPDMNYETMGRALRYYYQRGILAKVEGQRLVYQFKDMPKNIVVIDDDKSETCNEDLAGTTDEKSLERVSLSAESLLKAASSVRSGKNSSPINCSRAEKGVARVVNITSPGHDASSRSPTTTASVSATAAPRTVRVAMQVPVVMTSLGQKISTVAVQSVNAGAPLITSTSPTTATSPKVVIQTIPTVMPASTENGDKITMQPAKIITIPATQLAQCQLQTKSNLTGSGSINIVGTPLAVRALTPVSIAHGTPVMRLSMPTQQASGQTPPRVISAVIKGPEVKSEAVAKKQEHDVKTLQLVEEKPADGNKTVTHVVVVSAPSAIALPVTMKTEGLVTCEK
The experiment is described as above. The following applies: 10 mM Tris-HCl pH 7.5, 50 mM NaCl, 1 mM DTT, 4% glycerol, room temperature, 30 min; GST-TFs on glutathione beads, 16-mer random dsDNA library, 0.1% …; high values mean tight binding; double strand, one strand shown; scale: fold enrichment (6-mer frequency, TF over GST control).

The entries are a selection whose mix differs from that of the whole data set. For part of these data: At the low end of the ranking the order means little. The list shows a part of the results. For part of these data: Construct or isoform of the protein are uncertain.

As for GAACTA, the binding signal with HSF1 was 1.32; with ELF2, 1.5.
For the sequence CCTCGC, the binding signal with HSF1 amounted to 1.36; with ELF2 it was 1.37.
Taken in the same sequence, the figures for CCTTCC were 1.81 and 3.41.
On to TACCAT, for which the binding signal is 1.14 in the experiment with HSF1 and 1.09 with ELF2.
Taken in the same sequence, the figures for GACCGA were 0.848 and 0.788.
Taken in the same sequence, the figures for CGCACA were 0.835 and 0.98.
Taken in the same sequence, the figures for ACTCAG were 0.878 and 0.969.
As for TGCTTG, the binding signal with HSF1 is 0.999; in the experiment with ELF2, 1.09.
With GAAGCG, the binding signal worked out at 0.932 with HSF1 and 1.65 in the experiment with ELF2.
Taken in the same sequence, the figures for TAACCG were 0.906 and 1.18.
Taken in the same sequence, the figures for GGTTTG were 0.967 and 1.15.
Taken in the same sequence, the figures for TTCCGC were 1.34 and 4.54.
Turning to ATGTTG, the binding signal in the experiment with HSF1 was 0.997; with ELF2, 1.2.
In the same order, the values of TTCAAC are 1.14 and 1.26.
In the same order, the values of CTTGCT are 1.24 and 1.32.
Taken in the same sequence, the figures for GTGATG were 0.723 and 0.891.
Turning to GATGTC, the binding signal with HSF1 came out at 0.876; with ELF2 it was 1.38.
In the same order, the values of ATGGTG are 0.834 and 1.1.
In the same order, the values of GCAATA are 0.907 and 1.04.
In the same order, the values of GCGCCG are 0.827 and 0.919.
For GTCTAA, the binding signal in the experiment with HSF1 came out at 1.03; in the experiment with ELF2, 0.969.
Taken in the same sequence, the figures for GTGGAA were 1.23 and 0.924.
Taken in the same sequence, the figures for AGGCCC were 0.795 and 0.876.
With GGTATG, the binding signal in the experiment with HSF1 was 0.762; with ELF2, 0.943.
In the case of TCTCAT, the binding signal in the experiment with HSF1 is 1.29; with ELF2 it was 1.2.
Taken in the same sequence, the figures for TGTTGC were 1.02 and 1.3.
In the same order, the values of CGTATC are 0.926 and 1.22.
In the same order, the values of AGTATT are 1.35 and 1.24.
Regarding TAGATA, the binding signal with HSF1 was 1.46; in the experiment with ELF2 it was 1.03.
Taken in the same sequence, the figures for GTCCAA were 0.839 and 0.94.
Turning to GGTTGT, the results for the binding signal with HSF1 and with ELF2 were 0.715 and 0.891, respectively.
Taken in the same sequence, the figures for TGCGGA were 0.799 and 1.84.
Take TCGTTG: the binding signal came to 0.89 with HSF1 and 0.875 with ELF2.
As for TCCGGG, the binding signal with HSF1 was 0.66; with ELF2, 2.24.
In the same order, the values of TAGGGT are 1.06 and 1.06.
On to CAAGCC, for which the binding signal stood at 0.848 in the experiment with HSF1 and 0.907 with ELF2.
Taken in the same sequence, the figures for GTTTCA were 0.982 and 1.28.
Consider TGCCCA, for which the binding signal with HSF1 came out at 0.979; with ELF2, 1.11.
Taken in the same sequence, the figures for GTGCAC were 0.637 and 0.955.
Turning to GACTTG, the binding signal worked out at 0.73 with HSF1 and 0.798 with ELF2.
Taken in the same sequence, the figures for CATATG were 0.871 and 0.979.
In the same order, the values of ACAAAC are 0.966 and 1.12.
With CTCGCT, the binding signal in the experiment with HSF1 came out at 1.66; in the experiment with ELF2, 1.7.
In the same order, the values of AATCTA are 1.87 and 1.14.
For GTGTTT, the figures for the binding signal in the experiment with HSF1 and with ELF2 were 0.886 and 1.18, respectively.
Taken in the same sequence, the figures for TTCCAA were 1.47 and 1.19.
Taken in the same sequence, the figures for TGTCTG were 0.952 and 1.04.
Taken in the same sequence, the figures for CTTATA were 1.65 and 1.33.
Regarding CGCGCC, the results for the binding signal in the experiment with HSF1 and with ELF2 were 0.847 and 1.03, respectively.
Taken in the same sequence, the figures for TAGATG were 1.66 and 1.16.
Consider GCGAAT, for which the results for the binding signal with HSF1 and in the experiment with ELF2 were 1.27 and 1.04, respectively.
In the same order, the values of TCTGTA are 1.31 and 1.14.
Taken in the same sequence, the figures for AAATCG were 1.18 and 1.
In the same order, the values of AGCCAC are 0.886 and 0.953.
For the sequence GGATGC, the binding signal worked out at 0.772 with HSF1 and 1.19 with ELF2.
In the same order, the values of CCTTGT are 0.988 and 1.25.
Taken in the same sequence, the figures for TTCTTG were 1.98 and 1.36.
In the same order, the values of AAGGGC are 0.92 and 0.987.
As to CCTTCT, the binding signal turned out to be 2.98 with HSF1 and 1.6 in the experiment with ELF2.
As for TCTCAG, the binding signal in the experiment with HSF1 was 1.4; with ELF2 it was 1.35.
